From paper doi:10.1101/2024.12.10.627846
Results are given in words; binding and its absence hold for the method and conditions named. Binding seen in cells or lysates may run through a third protein.

Amino acid sequences for entries named in this document (tags omitted).
UniProt Q3T906: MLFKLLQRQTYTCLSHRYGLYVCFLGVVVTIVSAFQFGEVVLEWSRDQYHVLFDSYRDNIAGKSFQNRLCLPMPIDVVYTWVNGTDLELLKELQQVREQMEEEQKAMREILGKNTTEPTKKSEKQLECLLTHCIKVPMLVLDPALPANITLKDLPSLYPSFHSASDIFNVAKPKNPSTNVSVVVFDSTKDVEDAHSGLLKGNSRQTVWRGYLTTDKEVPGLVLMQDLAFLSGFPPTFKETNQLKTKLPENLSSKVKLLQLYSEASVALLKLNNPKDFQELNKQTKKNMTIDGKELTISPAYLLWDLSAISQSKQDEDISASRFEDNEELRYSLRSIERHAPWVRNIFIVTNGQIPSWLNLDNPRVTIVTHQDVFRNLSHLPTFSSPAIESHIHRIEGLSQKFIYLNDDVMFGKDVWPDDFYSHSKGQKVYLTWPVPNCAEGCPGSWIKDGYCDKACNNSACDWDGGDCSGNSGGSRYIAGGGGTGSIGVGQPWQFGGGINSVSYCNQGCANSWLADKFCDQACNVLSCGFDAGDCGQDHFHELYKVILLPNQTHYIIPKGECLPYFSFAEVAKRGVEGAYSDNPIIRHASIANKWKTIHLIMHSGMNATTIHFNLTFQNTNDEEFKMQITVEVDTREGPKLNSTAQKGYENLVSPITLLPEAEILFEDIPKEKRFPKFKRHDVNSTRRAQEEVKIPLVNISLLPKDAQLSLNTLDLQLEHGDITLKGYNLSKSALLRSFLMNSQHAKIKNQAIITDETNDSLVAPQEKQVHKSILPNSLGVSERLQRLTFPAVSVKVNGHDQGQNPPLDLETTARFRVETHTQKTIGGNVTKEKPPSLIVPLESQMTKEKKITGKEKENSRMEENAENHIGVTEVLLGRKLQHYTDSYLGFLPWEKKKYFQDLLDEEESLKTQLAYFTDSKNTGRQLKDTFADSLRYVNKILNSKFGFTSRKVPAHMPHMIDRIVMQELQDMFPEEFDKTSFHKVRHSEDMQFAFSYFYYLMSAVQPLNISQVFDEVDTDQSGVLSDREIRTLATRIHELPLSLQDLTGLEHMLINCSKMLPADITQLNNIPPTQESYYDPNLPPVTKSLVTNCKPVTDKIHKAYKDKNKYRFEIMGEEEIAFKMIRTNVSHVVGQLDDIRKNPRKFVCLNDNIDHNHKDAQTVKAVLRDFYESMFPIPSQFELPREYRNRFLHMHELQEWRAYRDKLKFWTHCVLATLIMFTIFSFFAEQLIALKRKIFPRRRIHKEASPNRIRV
UniProt Q9BQQ3: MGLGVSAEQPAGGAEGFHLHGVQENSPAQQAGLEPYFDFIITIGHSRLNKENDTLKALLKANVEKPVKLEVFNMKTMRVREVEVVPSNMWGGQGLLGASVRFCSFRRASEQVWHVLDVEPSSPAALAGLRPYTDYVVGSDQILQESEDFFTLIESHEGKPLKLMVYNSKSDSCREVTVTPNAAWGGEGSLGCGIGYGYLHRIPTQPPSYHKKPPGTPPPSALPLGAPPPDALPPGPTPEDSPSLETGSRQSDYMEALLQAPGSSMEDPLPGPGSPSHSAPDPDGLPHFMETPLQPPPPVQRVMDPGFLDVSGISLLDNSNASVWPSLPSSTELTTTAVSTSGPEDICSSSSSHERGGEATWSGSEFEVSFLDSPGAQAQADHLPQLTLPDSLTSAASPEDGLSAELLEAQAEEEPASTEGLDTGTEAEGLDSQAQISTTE

Target: Myc-tagged GNPTAB (GlcNAc-1-phosphotransferase alpha/beta precursor) (human) (UniProt Q3T906)
Assay: co-IP

binding | Molecule
no binding | GRASP65 (from UniProt Q9BQQ3 1-440)
no binding | GOLGIN-45 (protein, UniProt Q9H2G9 1-400) MTTKNLETKVTVTSSPIRGAGDGMETEEPPKSVEVTSGVQSRKHHSLQSPWKKAVPSESPGVLQLGKMLTEKAMEVKAVRILVPKAAITHDIPNKNTKVKSLGHHKGEFLGQSEGVIEPNKELSEVKNVLEKLKNSERRLLQDKEGLSNQLRVQTEVNRELKKLLVASVGDDLQYHFERLAREKNQLILENEALGRNTAQLSEQLERMSIQCDVWRSKFLASRVMADELTNSRAALQRQNRDAHGAIQDLLSEREQFRQEMIATQKLLEELLVSLQWGREQTYSPSVQPHSTAELALTNHKLAKAVNSHLLGNVGINNQKKIPSTVEFCSTPAEKMAETVLRILDPVTCKESSPDNPFFESSPTTLLATKKNIGRFHPYTRYENITFNCCNHCRGELIAL
no binding | GM130 (protein, UniProt Q08379 1-1002) MWPQPRLPPRPAMSEETRQSKLAAAKKKLREYQQRNSPGVPTGAKKKKKIKNGSNPETTTSGGCHSPEDTPKDNAATLQPSDDTVLPGGVPSPGASLTSMAASQNHDADNVPNLMDETKTFSSTESLRQLSQQLNGLVCESATCVNGEGPASSANLKDLESRYQQLAVALDSSYVTNKQLNITIEKLKQQNQEITDQLEEEKKECHQKQGALREQLQVHIQTIGILVSEKAELQTALAHTQHAARQKEGESEDLASRLQYSRRRVGELERALSAVSTQQKKADRYNKELTKERDALRLELYKNTQSNEDLKQEKSELEEKLRVLVTEKAGMQLNLEELQKKLEMTELLLQQFSSRCEAPDANQQLQQAMEERAQLEAHLGQVMESVRQLQMERDKYAENLKGESAMWRQRMQQMSEQVHTLREEKECSMSRVQELETSLAELRNQMAEPPPPEPPAGPSEVEQQLQAEAEHLRKELEGLAGQLQAQVQDNEGLSRLNREQEERLLELERAAELWGEQAEARRQILETMQNDRTTISRALSQNRELKEQLAELQSGFVKLTNENMEITSALQSEQHVKRELGKKLGELQEKLSELKETVELKSQEAQSLQQQRDQYLGHLQQYVAAYQQLTSEKEVLHNQLLLQTQLVDQLQQQEAQGKAVAEMARQELQETQERLEAATQQNQQLRAQLSLMAHPGEGDGLDREEEEDEEEEEEEAVAVPQPMPSIPEDLESREAMVAFFNSAVASAEEEQARLRGQLKEQRVRCRRLAHLLASAQKEPEAAAPAPGTGGDSVCGETHRALQGAMEKLQSRFMELMQEKADLKERVEELEHRCIQLSGETDTIGEYIALYQSQRAVLKERHREKEEYISRLAQDKEEMKVKLLELQELVLRLVGDRNEWHGRFLAAAQNPADEPTSGAPAPQELGAANQQGDLCEVSLAGSVEPAQGEAREGSPRDNPTAQQIMQLLREMQNPRERPGLGSNPCIPFFYRADENDEVKITVI
